Reference: patent US20220081412A1, “QUINOLINYL-PYRAZINE-CARBOXAMIDE COMPOUNDS AND USES THEREOF” (The Regents of the University of Michigan, priority 2018, published 2022)
Some of these results come from one statement about several compounds together.

System: MIA PaCa-2 cells
Experiment: Bru-seq analysis for nascent RNA synthesis (log2FC of genes, GSEA gene sets)
Format: cell-based, human

Measured: change in expression

CCN(CC)CCCC(C)Nc1cnc(C(=O)Nc2cc(C)cc3cccnc23)cn1 (stereo not drawn) [J4, 5-((5-(diethylamino)pentan-2-yl)amino)-N-(6-methylquinolin-8-yl)pyrazine-2-carboxamide]
> 1.5 fold: DHCR7 | INSIG1 | MVK

Cc1cc(NC(=O)c2cnc(N3CCNCC3)cn2)c2ncccc2c1 [J28, N-(6-methylquinolin-8-yl)-5-(piperazin-1-yl)pyrazine-2-carboxamide]
> 1.5 fold: DHCR7 | INSIG1 | MVK
